Data from the supplement of paper PMC4604168 (melanoma cell lines).
The list shows a part of the results. Repeats are few or missing, and single values can be far off.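 Imaging used 1,536-well plates; nuclei positive for cleaved PARP by antibody were divided by total DNA-stained nuclei to yield the apoptosis fraction. Doses for screening kept most cells viable, and cell lines differ markedly in resting and induced cleaved-PARP levels.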

Key:
Experiment in all cases: cleaved PARP positive nuclei fraction relative to DMSO control; melanoma cells; higher = more apoptosis
Conditions in all cases: library dose: low library concentration; 72 h
WM115 = system: WM115
WM1716 = system: WM1716
WM1745 = system: WM1745
WM3526 = system: WM3526
WM3619 = system: WM3619
WM451Lu = system: WM451Lu

| SMILES | cleaved PARP positive nuclei fraction (WM115) [%] | cleaved PARP positive nuclei fraction (WM1716) [%] | cleaved PARP positive nuclei fraction (WM1745) [%] | cleaved PARP positive nuclei fraction (WM3526) [%] | cleaved PARP positive nuclei fraction (WM3619) [%] | cleaved PARP positive nuclei fraction (WM451Lu) [%] |
| --- | --- | --- | --- | --- | --- | --- |
| Cc1nc(Nc2ncc(C(=O)Nc3c(C)cccc3Cl)s2)cc(N2CCN(CCO)CC2)n1 [dasatanib] + Nc1cccc2c1CN(C1CCC(=O)NC1=O)C2=O [lenalidomide] (first compound 0.004 µM, partner dose 1 µM) | 65.9 | 181 | 147 | 122 | 100 | 120 |
| Cc1cc(N2CCOCC2)cc2[nH]c(-c3c(NC[C@@H](O)c4cccc(Cl)c4)cc[nH]c3=O)nc12 + COc1cc2c(Oc3ccc4[nH]c(C)cc4c3F)ncnc2cc1OCCCN1CCCC1 [cediranib] (first compound 0.2 µM, partner dose 0.4 µM) | 72.6 | 87.2 | 125 | 68.4 | 68.1 | 43.7 |
| Nc1cccc2c1CN(C1CCC(=O)NC1=O)C2=O (stereo unspecified) [lenalidomide] + CO[C@@H]1[C@H](N(C)C(=O)c2ccccc2)C[C@H]2O[C@]1(C)n1c3ccccc3c3c4c(c5c6ccccc6n2c5c31)C(=O)NC4 [Midostaurin] (first compound 1 µM, partner dose 0.08 µM) | 34.7 | 80.5 | 88.2 | 60 | 121 | 31.5 |
| CC1(C)NC(=O)N(c2ccc([N+](=O)[O-])c(C(F)(F)F)c2)C1=O [nilutamide] + O=C(O)c1ccc(-c2c[nH]c3ncc(-c4ccccc4)cc23)cc1C1CCCC1 [GSK650394] (first compound 1 µM, partner dose 0.16 µM) | 59.5 | 188 | 96.8 | 33.1 | 107 | 29.2 |
| COc1cc(Nc2ncc(F)c(Nc3ccc4c(n3)NC(=O)C(C)(C)O4)n2)cc(OC)c1OC [Tamatinib] + Cn1cc(/C=C2\C(=O)Nc3cccnc32)c2ccccc21 [GW441756] (first compound 0.4 µM, partner dose 0.4 µM) | 154 | 87.9 | 150 | 100 | 92.7 | 66.7 |
| O=C(Nc1cccc(Cl)c1)Nc1ncc(CCNc2ncnc3ccsc23)s1 + O=c1cc(-c2cccc3c2Sc2ccccc2S3)oc(N2CCOCC2)c1 [KU55933] (first compound 0.0008 µM, partner dose 1 µM) | 21.7 | 13.9 | 115 | 38.4 | 80 | 132 |
| Cc1ccc(NC(=O)c2cccc(N(C)C)c2)cc1NC(=O)c1ccc(O)cc1 + CC(C)CCN1c2nc(Nc3cc(F)c(O)c(F)c3)ncc2N(C)C(=O)C1C [BID1870] (first compound 2 µM, partner dose 0.2 µM) | 95.5 | 55.1 | 94.3 | 72.7 | 93.5 | 24.4 |
| Clc1ccc(Nc2nnc(Cc3ccncc3)c3ccccc23)cc1 [vatalanib] + CCCCCCCCCCCC1=C(O)C(=O)C=C(O)C1=O [Embelin] (first compound 2 µM, partner dose 1.2 µM) | 156 | 95.9 | 102 | 70.4 | 79.3 | 77.1 |
| Cc1nc(Nc2ncc(C(=O)Nc3c(C)cccc3Cl)s2)cc(N2CCN(CCO)CC2)n1 [dasatanib] + Cn1nnc2c(C(N)=O)ncn2c1=O [temozolomide] (first compound 0.004 µM, partner dose 2 µM) | 188 | 115 | 119 | 41.3 | 84.9 | 66.5 |
| OCCn1cc(-c2cnc3nnn(Cc4ccc5ncccc5c4)c3n2)cn1 + Cn1cncc1[C@@](N)(c1ccc(Cl)cc1)c1ccc2c(c1)c(-c1cccc(Cl)c1)cc(=O)n2C [tipifarnib] (first compound 1 µM, partner dose 0.01 µM) | 35.3 | 87.7 | 102 | 61.3 | 117 | 163 |
| CC(=O)c1c(C)c2cnc(Nc3ccc(N4CCNCC4)cn3)nc2n(C2CCCC2)c1=O [palbociclib] + CC(C)CCN1c2nc(Nc3cc(F)c(O)c(F)c3)ncc2N(C)C(=O)C1C [BID1870] (first compound 0.04 µM, partner dose 0.2 µM) | 131 | 209 | 108 | 148 | 19.6 | 404 |
| C#Cc1cccc(Nc2ncnc3cc(OCCOC)c(OCCOC)cc23)c1 [erlotinib] + Cn1cc(/C=C2\C(=O)Nc3cccnc32)c2ccccc21 [GW441756] (first compound 0.8 µM, partner dose 0.4 µM) | 138 | 166 | 134 | 68.8 | 87.1 | 55.7 |
| Nc1cccc2c1CN(C1CCC(=O)NC1=O)C2=O (stereo unspecified) [lenalidomide] + Oc1nc(-c2ccc(C(F)(F)F)cc2)nc2c1CSCC2 [XAV939] (first compound 1 µM, partner dose 2 µM) | 137 | 174 | 114 | 63.2 | 127 | 140 |
| Cc1cc(N2CCOCC2)cc2[nH]c(-c3c(NC[C@@H](O)c4cccc(Cl)c4)cc[nH]c3=O)nc12 + Cn1cncc1[C@@](N)(c1ccc(Cl)cc1)c1ccc2c(c1)c(-c1cccc(Cl)c1)cc(=O)n2C [tipifarnib] (first compound 0.2 µM, partner dose 0.01 µM) | 223 | 78.6 | 113 | 48.2 | 97.3 | 124 |
| Cn1nnc2c(C(N)=O)ncn2c1=O [temozolomide] + CC(C)(C)c1cnc(CSc2cnc(NC(=O)C3CCNCC3)s2)o1 [SNS-032] (first compound 2 µM, partner dose 0.01 µM) | 114 | 101 | 89.4 | 132 | 112 | 60.9 |
| COCC[n+]1c2c(n(Cc3cnccn3)c1C)C(=O)c1ccccc1C2=O + O=C1NC(=O)/C(=C/c2ccc(-c3ccc(F)cc3O)o2)S1 [AS252424] (first compound 0.0004 µM, partner dose 1 µM) | 56.8 | 188 | 100 | 74.9 | 71.7 | 121 |
| CC(C)(C)c1cnc(CSc2cnc(NC(=O)C3CCNCC3)s2)o1 + O=C(O)c1ccc(-c2c[nH]c3ncc(-c4ccccc4)cc23)cc1C1CCCC1 [GSK650394] (first compound 0.01 µM, partner dose 0.16 µM) | 95.9 | 111 | 82.8 | 30.3 | 70.9 | 46.6 |
| Cc1nc(Nc2ncc(C(=O)Nc3c(C)cccc3Cl)s2)cc(N2CCN(CCO)CC2)n1 [dasatanib] + Cc1cc(N2CCOCC2)cc2[nH]c(-c3c(NC[C@@H](O)c4cccc(Cl)c4)cc[nH]c3=O)nc12 [BMS536924] (first compound 0.004 µM, partner dose 0.2 µM) | 195 | 453 | 230 | 29.4 | 115 | 89.3 |
| OCc1c[nH]c2ccccc12 [Indole-3-carbinol] + CC1(C)NC(=O)N(c2ccc([N+](=O)[O-])c(C(F)(F)F)c2)C1=O [nilutamide] (first compound 0.8 µM, partner dose 1 µM) | 74.9 | 40.6 | 117 | 61 | 102 | 114 |
| COCC[n+]1c2c(n(Cc3cnccn3)c1C)C(=O)c1ccccc1C2=O + C[C@]1(c2nc3c(C(N)=O)cccc3[nH]2)CCCN1 [Veliparib] (first compound 0.0004 µM, partner dose 1.4 µM) | 134 | 91.3 | 226 | 43.6 | 106 | 60.6 |
| COCC[n+]1c2c(n(Cc3cnccn3)c1C)C(=O)c1ccccc1C2=O + Cn1cncc1[C@@](N)(c1ccc(Cl)cc1)c1ccc2c(c1)c(-c1cccc(Cl)c1)cc(=O)n2C [tipifarnib] (first compound 0.0004 µM, partner dose 0.01 µM) | 97.4 | 72.5 | 88.8 | 156 | 97.4 | 38.2 |
| Cn1c(Nc2ccc(C(F)(F)F)cc2)nc2cc(Oc3ccnc(-c4ncc(C(F)(F)F)[nH]4)c3)ccc21 + C[C@@H]1CCN(C(=O)CC#N)C[C@@H]1N(C)c1ncnc2[nH]ccc12 [CP690550] (first compound 0.08 µM, partner dose 1 µM) | 77.1 | 133 | 132 | 193 | 144 | 105 |
| C[C@]1(c2nc3c(C(N)=O)cccc3[nH]2)CCCN1 [Veliparib] + COc1cc(Nc2ncc(F)c(Nc3ccc4c(n3)NC(=O)C(C)(C)O4)n2)cc(OC)c1OC [Tamatinib] (first compound 1.4 µM, partner dose 0.4 µM) | 121 | 127 | 122 | 42.5 | 76.9 | 104 |
| C[C@@H]1CCN(C(=O)CC#N)C[C@@H]1N(C)c1ncnc2[nH]ccc12 + CC(C)CCN1c2nc(Nc3cc(F)c(O)c(F)c3)ncc2N(C)C(=O)C1C [BID1870] (first compound 1 µM, partner dose 0.2 µM) | 84.7 | 68.8 | 107 | 36.4 | 83.5 | 30.4 |
| COCC[n+]1c2c(n(Cc3cnccn3)c1C)C(=O)c1ccccc1C2=O + COc1ccc2c(c1)CCC1C2CCC2(C)C(NCCCCCCN3C(=O)C=CC3=O)CCC12 [U73122] (first compound 0.0004 µM, partner dose 0.4 µM) | 40.9 | 102 | 90.5 | 68.1 | 73.8 | 72.4 |
| O=C(Nc1cccc(Cl)c1)Nc1ncc(CCNc2ncnc3ccsc23)s1 + COc1ccc(COc2ccc(Cc3cnc(N)nc3N)cc2OC)cc1 [GW2580] (first compound 0.0008 µM, partner dose 1 µM) | 88.7 | 138 | 112 | 73.5 | 84.4 | 61.6 |

Complete entries from above. Values in the order: cleaved PARP positive nuclei fraction (WM115) [%]	cleaved PARP positive nuclei fraction (WM1716) [%]	cleaved PARP positive nuclei fraction (WM1745) [%]	cleaved PARP positive nuclei fraction (WM3526) [%]	cleaved PARP positive nuclei fraction (WM3619) [%]	cleaved PARP positive nuclei fraction (WM451Lu) [%]
Cc1cc(N2CCOCC2)cc2[nH]c(-c3c(NC[C@@H](O)c4cccc(Cl)c4)cc[nH]c3=O)nc12 + Cn1cncc1[C@@](N)(c1ccc(Cl)cc1)c1ccc2c(c1)c(-c1cccc(Cl)c1)cc(=O)n2C [tipifarnib] (first compound 0.2 µM, partner dose 0.01 µM) in the list: 223	78.6	113	48.2	97.3	124
Cc1nc(Nc2ncc(C(=O)Nc3c(C)cccc3Cl)s2)cc(N2CCN(CCO)CC2)n1 [dasatanib] + Nc1cccc2c1CN(C1CCC(=O)NC1=O)C2=O [lenalidomide] (first compound 0.004 µM, partner dose 1 µM) in the list: 65.9	181	147	122	100	120
